Experimental data from US20260184793A1 (TJ BIOPHARMA SHANGHAI, published 2026).
Substitutions are numbered along the chain they refer to. Results are given in words; binding and its absence hold for the method and conditions named. Some entries that bind do so weakly or less than the wild type.

Amino acid sequences for entries named in this document (tags omitted). A change or cut given only in a name is not applied to a line headed by its entry. Residues count along the entry.
UniProt Q9NZQ7: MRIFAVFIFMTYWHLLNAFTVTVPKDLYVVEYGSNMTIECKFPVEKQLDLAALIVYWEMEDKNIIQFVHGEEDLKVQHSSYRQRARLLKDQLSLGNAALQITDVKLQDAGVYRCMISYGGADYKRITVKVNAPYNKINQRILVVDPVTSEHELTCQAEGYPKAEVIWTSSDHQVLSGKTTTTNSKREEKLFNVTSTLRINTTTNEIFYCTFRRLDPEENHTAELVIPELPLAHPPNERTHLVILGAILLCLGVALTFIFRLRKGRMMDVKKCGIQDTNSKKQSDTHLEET
human PD-L1 expressed on cells (Raji cells overexpressing human PD-L1; CHO cells): residues 19-290 of Q9NZQ7

B1: R21448511 (VHH)
VHH: EVQLVESGGGLVQPGGSLRLSCAASGFTFTFRHYVMGWFRQAPGKEMEFVADISWSGSGSYYADSVKGRFTISRDNSKNTVYLQMNSLRAEDTAVYYCAADMTTRMSQDSREYDYWGQGTLVTVSS
B2: R21448512 (VHH)
VHH: B1 VHH with D109A, R111D
B3: R21448510 (VHH)
VHH: B1 VHH with R105E, D109A
B4: R21448503 (VHH)
VHH: B1 VHH with D109A
B5: R21448502 (VHH)
VHH: B1 VHH with R32Y, M47R, D52A, D109A
notes: ELISA detection with anti-human IgG Fc implies a human Fc part that is not described
B6: R21448504 (VHH)
VHH: B1 VHH with M47R, D52A, R105E, D109A
notes: as for B5
B7: R21448505 (VHH)
VHH: B1 VHH with M47R, D52A
notes: as for B5
B8: R21448506 (VHH)
VHH: B1 VHH with M47R, D52A, D109A, R111D
notes: as for B5
B9: R21448507 (VHH)
VHH: B1 VHH with R32Y, M47R, D52A, R105E, D109A
notes: as for B5
B10: R21448508 (VHH)
VHH: B1 VHH with R32Y, M47R, D52A
notes: as for B5
B11: R21448509 (VHH)
VHH: B1 VHH with R32Y, M47R, D52A, D109A, R111D
notes: as for B5
B12: R21448513 (VHH)
VHH: B1 VHH with R32Y, M47R, R105E, D109A
notes: as for B5
B13: R21448514 (VHH)
VHH: B1 VHH with R32Y, M47R
notes: as for B5
B14: R21448515 (VHH)
VHH: B1 VHH with R32Y, M47R, D109A, R111D
notes: as for B5
B15: R21448516 (VHH)
VHH: B1 VHH with R32Y, M47R, R105E, R111D
notes: as for B5
B16: R21448517 (VHH)
VHH: B1 VHH with M47R, D52A, R105E
notes: as for B5
B17: R21448518 (VHH)
VHH: B1 VHH with M47R, D52A, R105E, D109A, R111D
notes: as for B5
B18: R21448519 (VHH)
VHH: B1 VHH with M47R, D52A, R111D
notes: as for B5
B19: R21560103 (VHH)
VHH: EVQLVESGGGLVQPGGSLRLSCAASGFTFSSGTQFSDSKIDWYRQAPGKGLVWVAGIFSTGSTIYEDSVKGRFTISRDNAKNTGYLQMNSLRAEDTAVYYCRVIGIGILAWGQGTLVTVSS
notes: as for B5
B20: R21560106 (VHH)
VHH: B19 VHH with I40A, I106R, I108T
notes: as for B5
B21: 93-VH-6 (VHH)
VHH: B1 VHH with M47R, D52A, D109A
B22: 112-VHH5-PTM (VHH)
VHH: B19 VHH with F27S, T28I, G50Q, L51R, V52D, T74A, T83S, G84L, I106R
B23: 93-VH-4 (VHH)
VHH: B1 VHH with E46G, M47L, D52A, D109A
B24: 93-VH-8 (VHH)
VHH: B1 VHH with F27R, E46G, M47L, D52A, D109A

target: human PD-L1 expressed on cells (Raji cells overexpressing human PD-L1; CHO cells) (human) (UniProt Q9NZQ7); test: flow cytometry on CHOK1-PDL1 cells (cell binding assay), GMFI

binding, binds:
B1
B2
B3

target: human PD-L1 (antigen, analyte in the Biacore kinetics) (human) (UniProt Q9NZQ7); test: Biacore, full kinetics, antigen 50-1.5625 nM as analyte

binding, binds:
B1
B2
B4
B3
B5
B6
B7
B8
B9
B10
B11
B12
B13
B14
B15
B16
B17
B18
B19
B20

target: human PD-L1 (antigen, analyte in the Biacore kinetics) (human) (UniProt Q9NZQ7); test: Biacore, full kinetics

binding, binds:
B21
B22
B23
B24

target: human PD-L1 expressed on cells (Raji cells overexpressing human PD-L1; CHO cells) (human) (UniProt Q9NZQ7); test: flow cytometry, PD-L1 expressed on CHO or Raji cells

binding, binds:
B1
B2
B4
B3

target: T1, human His-PD-L1 (human, UniProt Q9NZQ7 19-238, limits assumed); test: ELISA: plate coated with human His-PD-L1, antibody titrated, goat anti-human IgG Fc HRP, OD450
T1 construct: also called human PD-L1

binding, binds:
B1
B2
B4
B3

target: T1, human His-PD-L1; test: ELISA, coated human His-PD-L1, anti-human IgG Fc HRP

binding, binds:
B1
B2
B4
B3

target: T1, human His-PD-L1; test: ELISA blocking assay: antibody titrated together with Biotin-PD-1 on coated human His-PD-L1, Streptavidin-HRP, OD450

binding, binds:
B1
B2
B3
